Source: patent US8258173B2, “Melatonin derivatives and their use as antioxidants” (University of Sunderland, priority 2006, dated 2012)
pIC50: −log10 of the molar value. Some of these results come from one statement about several compounds together. At least one compound was matched to its structure with a doubt left.

Test system: lipid peroxidation in bovine brain extract liposomes (hydroxyl radicals)
Experiment: Antioxidant test, TBA assay (lipid peroxidation)
Assay type: biochemical
Settings: FeCl3/ascorbic acid, 37° C. 30 min, absorbance 532 nm
Procedure: Ascorbic acid and propylgallate were purchased from Aldrich. N-Butanol and ethanol were purchased from BDH. Butylated hydroxytoluene (BHT), bovine brain extract, FeCl3, thiobarbituric acid (TBA) and PBS (phosphate buffered saline) tablets were purchased from Sigma. For spectroscopic measurements, a UNICAM UVNIS Spectrometer (UV2) was used. A well-controlled water bath was utilized for incubating the test system at the required temperatures. Plastic falcon tubes were used to accommodate the assay. Accurate pipettes were used to dispense the reagents.
The following liposomes and reagents were prepared in order to carry out the experiments. • 1. Brain extract (50 mg) was weighed into a clean universal container. About 7 glass balls and 10 cm^3 of PBS were added. The mixture was sonicated in an ice-water bath until the lipid was suspended and the suspension was homogeneous and milky in appearance. The suspension was kept cool during the sonication, although care was taken not to overfill the bath with ice as the sonication becomes relatively ineffective. • 2. […]
Sixty-eight centrifuge tubes were numbered. • 1. […] Absorbance at 532 nm on a spectrophotometer was recorded, using n-butanol as blank. • 16. The mean and standard deviation were calculated. The % inhibition was calculated using equation (1). […]

Row | Compound | pIC50 (listed as N-acetylserotonin) | pIC50
1 | CC(=O)NCCc1c[nH]c2ccc(O)cc12 [N-Acetylseratonin, N-acetylserotonin, reference compound] | > 3.00 | –
2 | NCCc1c[nH]c2ccc(O)cc12 [serotonin, reference compound] | – | > 3.00
